Reference: the supplement of paper PMC10849652
The other results are listed elsewhere or left out.

By UniProt entry, the sequences of proteins in these tests, tags left out. Where a name states a change or a piece, a line headed by the entry shows the natural chain unless it says otherwise.
UniProt Q5D0E6: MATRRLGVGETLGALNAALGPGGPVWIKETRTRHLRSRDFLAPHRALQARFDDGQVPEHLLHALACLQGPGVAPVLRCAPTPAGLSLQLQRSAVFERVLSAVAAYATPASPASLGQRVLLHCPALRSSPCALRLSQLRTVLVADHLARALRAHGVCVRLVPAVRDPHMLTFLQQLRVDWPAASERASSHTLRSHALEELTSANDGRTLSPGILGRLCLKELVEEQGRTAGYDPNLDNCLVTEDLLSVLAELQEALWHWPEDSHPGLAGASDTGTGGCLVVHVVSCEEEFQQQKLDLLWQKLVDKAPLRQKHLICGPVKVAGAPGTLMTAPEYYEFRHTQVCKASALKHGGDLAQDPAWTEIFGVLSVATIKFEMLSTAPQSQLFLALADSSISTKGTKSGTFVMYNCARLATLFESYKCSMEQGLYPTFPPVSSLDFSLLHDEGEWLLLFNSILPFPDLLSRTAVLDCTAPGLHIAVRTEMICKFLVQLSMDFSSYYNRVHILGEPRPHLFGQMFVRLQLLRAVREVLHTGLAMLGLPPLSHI
UniProt Q9H9R9: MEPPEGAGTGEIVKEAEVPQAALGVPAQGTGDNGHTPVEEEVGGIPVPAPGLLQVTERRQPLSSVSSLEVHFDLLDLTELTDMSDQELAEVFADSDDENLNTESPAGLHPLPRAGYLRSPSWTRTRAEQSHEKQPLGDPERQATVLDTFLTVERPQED
UniProt Q9UIK4: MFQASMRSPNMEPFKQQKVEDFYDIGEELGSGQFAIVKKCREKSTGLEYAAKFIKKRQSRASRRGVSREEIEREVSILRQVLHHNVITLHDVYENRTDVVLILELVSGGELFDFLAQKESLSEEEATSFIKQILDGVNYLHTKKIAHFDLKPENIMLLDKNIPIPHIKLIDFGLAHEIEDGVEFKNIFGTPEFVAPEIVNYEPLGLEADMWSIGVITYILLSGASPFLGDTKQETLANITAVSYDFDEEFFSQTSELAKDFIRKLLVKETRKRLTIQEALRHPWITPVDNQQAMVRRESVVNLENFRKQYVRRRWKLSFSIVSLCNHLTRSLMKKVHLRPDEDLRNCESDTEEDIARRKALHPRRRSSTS
UniProt Q6ZWL3: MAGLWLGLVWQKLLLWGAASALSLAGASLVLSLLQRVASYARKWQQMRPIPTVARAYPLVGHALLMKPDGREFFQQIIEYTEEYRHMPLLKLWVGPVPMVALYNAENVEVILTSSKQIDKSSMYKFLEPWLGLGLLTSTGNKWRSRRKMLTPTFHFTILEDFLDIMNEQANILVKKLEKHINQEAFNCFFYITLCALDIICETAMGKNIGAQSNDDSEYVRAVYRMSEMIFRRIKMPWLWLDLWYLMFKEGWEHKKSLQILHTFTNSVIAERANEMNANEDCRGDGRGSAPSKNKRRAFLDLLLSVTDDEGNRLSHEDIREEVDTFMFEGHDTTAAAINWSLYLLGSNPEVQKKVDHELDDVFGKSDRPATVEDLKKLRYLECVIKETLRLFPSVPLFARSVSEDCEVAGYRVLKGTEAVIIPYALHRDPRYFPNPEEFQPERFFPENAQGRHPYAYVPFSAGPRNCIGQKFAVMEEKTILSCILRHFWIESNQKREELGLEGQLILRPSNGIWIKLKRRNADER
UniProt Q9NXF7, whole entry, looked up: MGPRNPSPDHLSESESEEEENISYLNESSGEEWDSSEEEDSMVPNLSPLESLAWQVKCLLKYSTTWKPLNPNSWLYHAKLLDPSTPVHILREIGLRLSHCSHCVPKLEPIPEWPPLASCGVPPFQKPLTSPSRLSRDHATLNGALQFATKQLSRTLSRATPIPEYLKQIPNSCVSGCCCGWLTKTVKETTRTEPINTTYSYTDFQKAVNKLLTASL
UniProt Q99418: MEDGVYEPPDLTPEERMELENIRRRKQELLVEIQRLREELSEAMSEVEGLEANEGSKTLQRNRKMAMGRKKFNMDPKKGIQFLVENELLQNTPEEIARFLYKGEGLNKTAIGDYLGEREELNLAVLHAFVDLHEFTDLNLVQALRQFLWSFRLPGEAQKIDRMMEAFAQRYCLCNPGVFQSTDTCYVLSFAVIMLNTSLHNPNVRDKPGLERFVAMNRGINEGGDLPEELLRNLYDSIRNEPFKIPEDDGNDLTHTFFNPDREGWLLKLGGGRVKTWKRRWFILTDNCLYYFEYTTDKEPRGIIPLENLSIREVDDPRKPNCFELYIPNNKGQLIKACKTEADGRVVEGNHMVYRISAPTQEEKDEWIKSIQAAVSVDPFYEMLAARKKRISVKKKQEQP
UniProt Q15438: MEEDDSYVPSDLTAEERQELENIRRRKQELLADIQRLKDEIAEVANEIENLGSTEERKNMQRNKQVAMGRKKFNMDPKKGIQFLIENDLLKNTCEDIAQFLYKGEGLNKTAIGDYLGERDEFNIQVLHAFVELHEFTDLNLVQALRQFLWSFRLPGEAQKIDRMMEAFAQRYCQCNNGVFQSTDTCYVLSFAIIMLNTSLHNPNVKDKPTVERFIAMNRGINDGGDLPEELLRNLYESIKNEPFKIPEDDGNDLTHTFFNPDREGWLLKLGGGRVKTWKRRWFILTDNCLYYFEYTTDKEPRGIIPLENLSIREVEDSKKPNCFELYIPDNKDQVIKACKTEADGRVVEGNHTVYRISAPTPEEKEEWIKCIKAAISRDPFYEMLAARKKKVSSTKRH
UniProt Q5QP82: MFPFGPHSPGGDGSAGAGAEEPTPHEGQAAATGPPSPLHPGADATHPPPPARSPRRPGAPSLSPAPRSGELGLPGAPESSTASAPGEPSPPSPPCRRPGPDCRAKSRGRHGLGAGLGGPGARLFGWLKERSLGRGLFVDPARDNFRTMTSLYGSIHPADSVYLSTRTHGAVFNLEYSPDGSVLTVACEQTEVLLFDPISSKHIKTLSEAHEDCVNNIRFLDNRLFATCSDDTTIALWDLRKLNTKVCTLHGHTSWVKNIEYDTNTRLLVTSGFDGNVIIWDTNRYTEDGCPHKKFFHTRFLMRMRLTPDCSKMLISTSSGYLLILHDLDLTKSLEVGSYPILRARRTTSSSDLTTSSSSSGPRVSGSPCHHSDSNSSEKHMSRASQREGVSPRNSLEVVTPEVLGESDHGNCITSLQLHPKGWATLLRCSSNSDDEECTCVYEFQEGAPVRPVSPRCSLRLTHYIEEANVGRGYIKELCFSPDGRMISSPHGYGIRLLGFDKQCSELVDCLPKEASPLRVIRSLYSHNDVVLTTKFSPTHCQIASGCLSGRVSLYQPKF
UniProt Q96FC9: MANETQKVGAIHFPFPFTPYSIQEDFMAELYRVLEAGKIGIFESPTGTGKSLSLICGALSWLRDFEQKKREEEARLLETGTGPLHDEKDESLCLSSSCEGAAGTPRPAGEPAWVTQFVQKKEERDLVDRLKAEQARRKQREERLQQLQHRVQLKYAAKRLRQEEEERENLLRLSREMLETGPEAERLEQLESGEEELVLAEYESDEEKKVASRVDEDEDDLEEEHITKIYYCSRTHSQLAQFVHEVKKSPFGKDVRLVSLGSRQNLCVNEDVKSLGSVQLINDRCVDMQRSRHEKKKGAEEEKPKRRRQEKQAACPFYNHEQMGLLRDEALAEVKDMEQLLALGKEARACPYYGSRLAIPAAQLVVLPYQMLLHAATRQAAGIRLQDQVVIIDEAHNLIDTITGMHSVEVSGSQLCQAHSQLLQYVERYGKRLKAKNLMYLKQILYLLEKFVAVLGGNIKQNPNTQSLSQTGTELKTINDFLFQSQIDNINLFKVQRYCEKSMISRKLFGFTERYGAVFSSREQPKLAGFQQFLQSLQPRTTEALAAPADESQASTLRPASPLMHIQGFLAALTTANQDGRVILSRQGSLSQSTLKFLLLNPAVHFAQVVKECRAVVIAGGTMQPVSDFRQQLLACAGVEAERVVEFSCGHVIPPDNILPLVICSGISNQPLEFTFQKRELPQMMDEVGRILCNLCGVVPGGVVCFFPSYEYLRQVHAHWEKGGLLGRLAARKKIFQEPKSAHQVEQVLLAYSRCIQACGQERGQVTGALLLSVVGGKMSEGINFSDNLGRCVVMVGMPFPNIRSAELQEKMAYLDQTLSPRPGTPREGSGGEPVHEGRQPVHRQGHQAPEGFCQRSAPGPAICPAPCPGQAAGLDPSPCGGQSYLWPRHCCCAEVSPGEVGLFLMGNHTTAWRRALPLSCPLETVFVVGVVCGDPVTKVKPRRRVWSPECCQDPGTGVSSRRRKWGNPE
UniProt Q6VVX0: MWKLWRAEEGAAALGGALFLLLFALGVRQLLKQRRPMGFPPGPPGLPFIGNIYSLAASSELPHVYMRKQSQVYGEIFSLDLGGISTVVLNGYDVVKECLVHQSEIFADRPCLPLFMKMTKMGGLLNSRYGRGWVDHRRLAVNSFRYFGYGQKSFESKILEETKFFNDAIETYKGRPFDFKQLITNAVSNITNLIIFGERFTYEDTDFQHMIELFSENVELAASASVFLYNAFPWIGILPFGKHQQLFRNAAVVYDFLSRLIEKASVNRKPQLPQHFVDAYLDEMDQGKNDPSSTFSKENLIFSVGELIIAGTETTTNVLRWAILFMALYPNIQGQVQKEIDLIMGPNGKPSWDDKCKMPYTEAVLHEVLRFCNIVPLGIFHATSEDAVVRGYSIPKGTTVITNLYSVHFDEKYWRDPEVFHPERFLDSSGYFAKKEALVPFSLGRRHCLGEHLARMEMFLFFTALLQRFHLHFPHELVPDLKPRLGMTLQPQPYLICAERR
UniProt Q9NY93: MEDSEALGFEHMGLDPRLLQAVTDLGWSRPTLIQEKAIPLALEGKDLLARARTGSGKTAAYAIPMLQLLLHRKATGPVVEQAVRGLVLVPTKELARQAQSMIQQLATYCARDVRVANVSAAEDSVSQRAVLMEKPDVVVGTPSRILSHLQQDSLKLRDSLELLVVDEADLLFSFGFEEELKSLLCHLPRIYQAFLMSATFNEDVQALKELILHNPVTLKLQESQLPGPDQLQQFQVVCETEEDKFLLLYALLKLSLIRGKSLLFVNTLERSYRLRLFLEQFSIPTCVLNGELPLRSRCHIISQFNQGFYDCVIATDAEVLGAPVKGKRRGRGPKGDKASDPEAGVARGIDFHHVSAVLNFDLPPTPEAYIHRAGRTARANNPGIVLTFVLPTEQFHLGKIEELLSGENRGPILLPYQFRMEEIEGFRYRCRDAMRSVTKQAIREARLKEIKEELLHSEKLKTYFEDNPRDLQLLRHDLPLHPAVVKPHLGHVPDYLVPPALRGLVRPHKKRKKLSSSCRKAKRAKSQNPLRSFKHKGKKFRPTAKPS

Tests used:
Test in all cases: log2 fold change, soluble protein after heating vs DMSO (PISA); higher = thermal stabilisation; K562 lysate, 10 uM; active = over 0.2 and 3.5 SD of the protein, either way, in both replicates (recomputed)
erlotinib = compound: C#Cc1cccc(Nc2ncnc3cc(OCCOC)c(OCCOC)cc23)c1 [erlotinib]
How it was run: (§1)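 Thermal stability, expressed as log-two fold change relative to solvent controls, is given from duplicates. Crude K562 extract in PBS pH 7.4 with 1 mM MgCl2, at 1 mg/mL protein, was treated with 10 μM compound for 30 min and heated in aliquots for 3 min across 48°C-58°C. After pooling, adjustment to 0.5% NP-40 at 4°C and centrifugation at 21,000xg for 90 min, supernatant protein was measured by TMTpro 16plex LC-MS/MS with channel sums equalised.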

[1] = compound: C/C(=N\NC(=O)C1=CC(=CC=C1)S(=O)(=O)N2CCOCC2)/C3=C(C=CC(=C3)Cl)O
How it was run: as §1

[2] = compound: C1=CC(=CC=C1C2=NC3=C(N2)C=C(C=C3)C(=O)N)OC4=CC=C(C=C4)Cl
How it was run: as §1

[3] = compound: C1=CC2=C(C=CC(=C2)/C=C\3/C(=O)NC(=NCC4=CC=CS4)S3)N=C1
How it was run: as §1

[4] = compound: C1=CC=C2C(=C1)C3=NNC4=CC=CC(=C43)C2=O
How it was run: as §1

[5] = compound: C1CCN(C1)C(=O)NC2=CC=CC(=C2)NC3=NC=C(C(=N3)NCCC4=CN=CN4)Br
How it was run: as §1

[6] = compound: C1CN(CCC1(CC2=CC=C(C=C2)Cl)N)C3=NC=NC4=C3C=CN4
How it was run: as §1

[7] = compound: CC(=O)c1cnc2ccc(-c3cc(Cl)c(O)c(Cl)c3)nc2c1N[C@H]1CC[C@H](CN(C)C)CC1
How it was run: as §1

[8] = compound: CC(C)C1=C2N=C(C=C(N2N=C1)NCC3=CC=CC=C3)NCCCCCCN
How it was run: as §1

[9] = compound: CC1=CC=C(C=C1)SC2=C3C=C(SC3=CN=C2)C(=O)N
How it was run: as §1

[10] = compound: C1=CC=C(C=C1)C2=NC(=C(N2)C3=CC=NC=C3)C4=CC(=C(C=C4)Cl)O
How it was run: as §1

IRAK-1-4 Inhibitor I = compound: C1COCCN1CCN2C3=CC=CC=C3N=C2NC(=O)C4=CC(=CC=C4)[N+](=O)[O-] [IRAK-1-4 Inhibitor I]
How it was run: as §1

ralimetinib = compound: CC(C)(C)Cn1c(N)nc2ccc(-c3[nH]c(C(C)(C)C)nc3-c3ccc(F)cc3)nc21 [ralimetinib]
How it was run: as §1

[11] = compound: CC(C)(O)CC(=O)NCCn1ccc2ncnc(Nc3ccc(Oc4cccc(C(F)(F)F)c4)c(Cl)c3)c21
How it was run: as §1

[12] = compound: CC1=C(C(CC(=O)N1)C2=CC=C(C=C2)C(F)(F)F)C(=O)NC3=C(C=C4C(=C3)C=NN4)F
How it was run: as §1

[13] = compound: CC1=C(C2=C(C=C1)C(=O)C3=CC=CC=C3N2CCCN)C
How it was run: as §1

[14] = compound: CC1=C(C=C(C=C1)NC(=O)C2=CC(=CC=C2)C(C)(C)C#N)NC3=CC4=C(C=C3)N=CN(C4=O)C
How it was run: as §1

[15] = compound: CC1=C(C=C(C=C1)NC(=O)C2=CC(=CC=C2)N(C)C)NC(=O)C3=CC=C(C=C3)O
How it was run: as §1

[16] = compound: C1=CC2=NC=CN=C2C=C1/C=C/3\C(=O)NC(=O)S3
How it was run: as §1

ibrutinib = compound: C=CC(=O)N1CCC[C@@H](n2nc(-c3ccc(Oc4ccccc4)cc3)c3c(N)ncnc32)C1 [ibrutinib]
How it was run: as §1

Measured: log2 fold change

DALRD3 (UniProt Q5D0E6)
inactive: erlotinib 0.034 | [1] 0.152 | [2] 0.05 | [3] -0.413 | [4] 0.021 | [5] 0.031 | [6] -0.068 | [7] 0.028 | [8] -0.024 | [9] 0.037

DBNDD1 isoform 3 (UniProt Q9H9R9)
inactive: erlotinib 0.118 | [2] 0.117 | [10] 0.005 | [5] 0.063 | [6] 0.157 | IRAK-1-4 Inhibitor I 0.063 | [7] 0.052 | ralimetinib -0.016 | [11] -0.093 | [8] 0.013 | [12] 0.161 | [13] 0.195 | [14] 0.025 | [15] 0.041 | [9] -0.048

DAPK2 isoform 2 (UniProt Q9UIK4)
inactive: erlotinib 0.037 | [1] -0.008 | [2] -0.364 | [3] -0.037 | [10] 0.102 | [4] 0.244 | IRAK-1-4 Inhibitor I 0.034 | [7] 0.339 | ralimetinib -0.135 | [11] -0.287 | [8] -0.056 | [15] -0.005 | [9] -0.098

CYP4V2 (UniProt Q6ZWL3)
inactive: erlotinib -0.07 | [2] 0.014 | [16] 0.126 | [10] 0.099 | IRAK-1-4 Inhibitor I 0.074 | ibrutinib 0.157 | [7] 0.129 | ralimetinib 0.058 | [11] -0.095 | [8] -0.004 | [13] -0.022 | [14] 0.02 | [15] 0.015 | [9] 0.015

DCAF16 (UniProt Q9NXF7)
inactive: erlotinib -0.024 | [1] 0.051 | [2] 0.092 | [3] -0.071 | [16] 0.086 | [10] 0 | [4] -0.006 | [5] 0.041 | [6] 0.01 | IRAK-1-4 Inhibitor I -0.012 | ibrutinib -0.005 | [7] -0.03 | ralimetinib -0.021 | [11] 0.001 | [8] 0.026 | [12] -0.016 | [13] -0.016 | [14] 0.041 | [15] -0.04 | [9] -0.014

DCUN1D1 (UniProt C9JVE2)
inactive: erlotinib 0.097 | [2] -0.046 | [16] 0.017 | [10] 0.077 | [5] -0.007 | [6] 0.031 | IRAK-1-4 Inhibitor I 0.254 | ibrutinib 0.225 | [7] 0.096 | ralimetinib -0.098 | [11] -0.158 | [8] 0.011 | [13] -0.073 | [14] 0.293 | [15] -0.063 | [9] 0.189

CYTH2 (UniProt Q99418)
inactive: erlotinib 0.016 | [2] 0.057 | [16] 0.089 | [10] 0.026 | [5] 0.02 | [6] 0.033 | IRAK-1-4 Inhibitor I -0.073 | ibrutinib 0.054 | [7] -0.013 | ralimetinib 0.058 | [11] 0.075 | [8] -0.01 | [12] -0.05 | [13] 0.016 | [15] 0.047 | [9] -0.003

CYTH1 (UniProt Q15438)
inactive: erlotinib 0.007 | [2] 0.059 | [16] 0.022 | [10] 0.034 | [5] 0.011 | [6] 0.042 | IRAK-1-4 Inhibitor I 0.011 | ibrutinib 0.01 | [7] 0.058 | ralimetinib -0.119 | [11] 0.187 | [8] -0.047 | [12] 0.216 | [14] -0.034 | [15] -0.143 | [9] -0.079

DCAF10 (UniProt Q5QP82)
inactive: erlotinib 0.028 | [1] -0.09 | [2] 0.005 | [3] -0.032 | [16] -0.071 | [10] 0.032 | [4] 0.11 | [5] -0.025 | [6] 0.017 | IRAK-1-4 Inhibitor I -0.074 | ibrutinib 0.016 | ralimetinib 0.016 | [11] 0.025 | [8] -0.023 | [12] -0.031 | [13] 0.052 | [14] -0.024 | [15] 0.01

DDX11 (UniProt Q96FC9)
inactive: erlotinib 0.019 | [1] 0.044 | [2] -0.159 | [3] 0.025 | [10] -0.006 | [4] 0.091 | IRAK-1-4 Inhibitor I -0.009 | ralimetinib 0.083 | [11] 0.039 | [8] -0.176 | [12] 0.034 | [13] -0.063 | [14] -0.031 | [15] 0.044

CYP2R1 (UniProt Q6VVX0)
inactive: erlotinib -0.047 | [1] -0.122 | [2] -0.08 | [3] 0.019 | [10] -0.013 | [4] 0.027 | [5] 0.035 | [6] -0.026 | IRAK-1-4 Inhibitor I 0.03 | [7] -0.014 | ralimetinib 0.111 | [11] -0.017 | [8] -0.03 | [12] -0.084 | [13] 0.046 | [15] -0.058 | [9] 0.017

DDX56 (UniProt Q9NY93)
inactive: erlotinib 0 | [1] -0.087 | [2] 0.073 | [3] -0.126 | [16] -0.036 | [10] 0.001 | [4] -0.016 | [5] -0.003 | [6] 0.068 | IRAK-1-4 Inhibitor I -0.048 | ibrutinib 0.035 | [7] -0.016 | ralimetinib 0.031 | [11] -0.01 | [8] 0 | [12] 0.02 | [13] 0.014 | [14] 0.044 | [15] 0.001 | [9] 0.009
